These are yes or no findings as the source states them, for the method shown. Binding seen in cells or lysates may run through a third protein. Here binding means that the protein was enriched with, or labelled near, the bait; the list need not be complete.
B1: NCK-associated protein 1 (NCKAP1), endogenous in mouse cortex (protein, UniProt P28660 1-1128)
chain: MSRSVLQPSQQKLAEKLTILNDRGVGMLTRLYNIKKACGDPKAKPSYLIDKNLESAVKFIVRKFPAVETRNNNQQLAQLQKEKSEILKNLALYYFTFVDVMEFKDHVCDLLNTIDVCQVFFDITVNFDLTKNYLDLTVTYTTLMILLSRIEERKAIIGLYNYAHEMTHGASDREYPRLGQMIVDYENPLKKMMEEFVPHSKSLSDALISLQMVYPRRNLSADQWRNAQLLSLISAPSTMLNPAQSDTMPCEYLSLDAMEKWIIFGFILCHGMLNTEATALNLWKLALQSSSCLSLFRDEVFHIHKAAEDLFVNIRGYNKRINDIRECKEAAVSHAGSMHRERRKFLRSALKELATVLSDQPGLLGPKALFVFMALSFARDEIIWLLRHADNMPKKSADDFIDKHIAELIFYMEELRAHVRKYGPVMQRYYVQYLSGFDAVVLNELVQNLSVCPEDESIIMSSFVNTMTSLSVKQVEDGEVFDFRGMRLDWFRLQAYTSVSKASLSLADHRELGKMMNTIIFHTKMVDSLVEMLVETSDLSIFCFYSRAFEKMFQQCLELPSQSRYSIAFPLLCTHFMSCTHELCPEERHHIGDRSLSLCNMFLDEMAKQARNLITDICTEQCTLSDQLLPKHCAKTISQAVNKKSKKQTGKKGEPEREKPGVESMRKNRLVVTNLDKLHTALSELCFSINYVPNMAVWEHTFTPREYLTSHLEIRFTKSIVGMTMYNQATQEIAKPSELLTSVRAYMTVLQSIENYVQIDITRVFNNVLLQQTQHLDSHGEPTITSLYTNWYLETLLRQVSNGHIAYFPAMKAFVNLPTENELTFNAEEYSDISEMRSLSELLGPYGMKFLSESLMWHISSQVAELKKLVVENVDVLTQMRTSFDKPDQMAALFKRLSSVDSVLKRMTIIGVILSFRSLAQEALRDVLSYHIPFLVSSIEDFKDHIPRETDMKVAMNVYELSSAAGLPCEIDPALVVALSSQKSENISPEEEYKIACLLMVFVAVSLPTLASNVMSQYSPAIEGHCNNIHCLAKAINQIAAALFTIHKGSIEDRLKEFLALASSSLLKIGQETDKTTTRNRESVYLLLDMIVQESPFLTMDLLESCFPYVLLRNAYHAVYKQSVTSSA
B2: cannabinoid receptor-interacting protein 1, endogenous in mouse cortex (protein, UniProt Q5M8N0 1-164)
chain: MGDLPGLVRLSIALRIQPNDGPVFFKVDGQRFGQNRTIKLLTGSSYKVEVKIKPTTLQVENISIGGVLVPLELKGKEPDGERVVYTGIYDTEGVAPTKSGERQPIQITMPFTDIGTFETVWQVKFYNYHKRDHCQWGSPFSVIEYECKPNETRSLMWVNKESFL
B3: Wiskott-Aldrich syndrome protein-family verprolin-homologous protein 1 (WAVE1), endogenous in mouse cortex (protein, UniProt Q8R5H6 1-559)
chain: MPLVKRNIDPRHLCHTALPRGIKNELECVTNISLANIIRQLSSLSKYAEDIFGELFNEAHSFSFRVNSLQERVDRLSVSVTQLDPKEEELSLQDITMRKAFRSSTIQDQQLFDRKTLPIPLQETYDVCEQPPPLNILTPYRDDGKEGLKFYTNPSYFFDLWKEKMLQDTEDKRKEKRKQKQKNLDRPHEPEKVPRAPHDRRREWQKLAQGPELAEDDADLLHKHIEVANGPASHYETRPQTYVDHMDGSYSLSALPFSQMSELLTRAEERVLVRPHEPPPPPPMHGAGDAKPTPTCISSATGLIENRPQSPAAGRTPVFVSPTPPPPPPPLPSALSTSSLRASMTSTPPPPVPPPPPPPATALQAPAVPPPPAPLQIAPGVLHPAPPPIAPPLVQPSPPVARAAPVCETVPVHPLPQGEVQGLPPPPPPPPLPPPGIRPSSPVAVAALAHPPSGLHPAPSTAPGPHAPLMPPSPPSQVLPASEPKRHPSTLPVISDARSVLLEAIRKGIQLRKVEEQREQEAKHERIENDVATILSRRIAVEYSDSEDDSEFDEVDWLE

Chains of the proteins cited; added tags and fusions are not shown.
UniProt P47746: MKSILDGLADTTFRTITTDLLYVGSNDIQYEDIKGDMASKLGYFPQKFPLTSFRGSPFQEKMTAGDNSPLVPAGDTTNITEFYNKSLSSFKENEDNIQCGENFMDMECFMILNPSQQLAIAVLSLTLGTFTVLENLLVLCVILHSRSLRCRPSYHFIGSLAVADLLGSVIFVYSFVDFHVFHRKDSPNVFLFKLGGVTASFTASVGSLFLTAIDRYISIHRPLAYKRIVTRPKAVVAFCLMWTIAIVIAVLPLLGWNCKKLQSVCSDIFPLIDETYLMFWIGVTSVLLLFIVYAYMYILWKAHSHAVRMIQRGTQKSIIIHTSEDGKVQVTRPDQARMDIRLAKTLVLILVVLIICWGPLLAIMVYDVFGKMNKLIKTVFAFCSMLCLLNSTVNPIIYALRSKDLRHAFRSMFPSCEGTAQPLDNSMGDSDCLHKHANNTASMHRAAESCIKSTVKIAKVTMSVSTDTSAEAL
UniProt Q5SQX6: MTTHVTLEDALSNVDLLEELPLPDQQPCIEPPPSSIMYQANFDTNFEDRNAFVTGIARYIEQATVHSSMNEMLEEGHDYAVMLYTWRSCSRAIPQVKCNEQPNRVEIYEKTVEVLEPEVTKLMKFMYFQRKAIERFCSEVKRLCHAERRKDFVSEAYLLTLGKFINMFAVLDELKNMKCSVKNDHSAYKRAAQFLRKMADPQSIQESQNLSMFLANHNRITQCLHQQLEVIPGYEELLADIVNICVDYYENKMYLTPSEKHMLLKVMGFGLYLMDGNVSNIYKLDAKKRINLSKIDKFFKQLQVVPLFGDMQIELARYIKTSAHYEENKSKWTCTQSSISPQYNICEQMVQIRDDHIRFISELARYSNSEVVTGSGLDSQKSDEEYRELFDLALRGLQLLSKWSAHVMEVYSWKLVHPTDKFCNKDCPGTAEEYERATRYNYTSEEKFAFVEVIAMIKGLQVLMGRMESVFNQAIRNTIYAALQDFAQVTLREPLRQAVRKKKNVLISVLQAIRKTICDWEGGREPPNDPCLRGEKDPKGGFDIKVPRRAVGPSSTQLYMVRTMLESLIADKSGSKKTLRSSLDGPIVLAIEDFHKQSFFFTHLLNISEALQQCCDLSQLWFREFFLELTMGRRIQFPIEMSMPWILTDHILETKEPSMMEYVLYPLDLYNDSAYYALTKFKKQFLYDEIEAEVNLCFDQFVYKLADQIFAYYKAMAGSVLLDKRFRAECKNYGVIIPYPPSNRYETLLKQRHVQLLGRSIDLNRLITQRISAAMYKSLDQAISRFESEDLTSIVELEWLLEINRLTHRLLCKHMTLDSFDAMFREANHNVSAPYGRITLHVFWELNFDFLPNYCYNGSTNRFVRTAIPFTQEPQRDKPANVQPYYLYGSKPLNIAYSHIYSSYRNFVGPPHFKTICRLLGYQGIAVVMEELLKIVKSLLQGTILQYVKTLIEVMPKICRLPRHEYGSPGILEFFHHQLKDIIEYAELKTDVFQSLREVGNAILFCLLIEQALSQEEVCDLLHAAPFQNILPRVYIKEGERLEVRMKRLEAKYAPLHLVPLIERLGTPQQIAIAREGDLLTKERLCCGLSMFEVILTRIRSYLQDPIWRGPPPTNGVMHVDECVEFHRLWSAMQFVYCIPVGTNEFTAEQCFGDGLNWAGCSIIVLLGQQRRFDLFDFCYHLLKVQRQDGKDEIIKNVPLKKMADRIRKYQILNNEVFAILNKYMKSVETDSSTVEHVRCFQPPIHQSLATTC
UniProt P21279: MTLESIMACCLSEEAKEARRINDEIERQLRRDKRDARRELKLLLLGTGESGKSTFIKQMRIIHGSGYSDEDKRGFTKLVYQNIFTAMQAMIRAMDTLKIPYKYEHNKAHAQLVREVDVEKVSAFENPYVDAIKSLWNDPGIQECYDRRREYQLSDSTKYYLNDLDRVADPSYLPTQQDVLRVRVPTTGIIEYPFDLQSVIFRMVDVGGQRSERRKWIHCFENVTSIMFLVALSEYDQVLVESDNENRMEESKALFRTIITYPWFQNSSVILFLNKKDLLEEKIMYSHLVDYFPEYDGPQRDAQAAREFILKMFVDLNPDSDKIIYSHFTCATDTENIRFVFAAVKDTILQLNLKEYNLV

molecular target: EGFP-tagged CB1 receptor (cannabinoid type 1 receptor), expressed from rAAV in mouse cortex (UniProt P47746); test: affinity purification with mass spectrometry; GFP-nanotrap beads on Na-cholate-solubilised cortical membrane fractions of mice expressing CB1-EGFP or GFP (control); nano-LC MS/MS; 5 independent immunoprecipitations; rPQ > 4 taken as specific

Row | binding | Molecule
1 | binds | cytoplasmic FMR1-interacting protein 2 (CYFIP2), endogenous in mouse cortex (from UniProt Q5SQX6 1-1253)
2 | binds | endogenous CB1 receptor (cannabinoid type 1 receptor) of mouse cortex (from UniProt P47746 1-473)
3 | binds | guanine nucleotide-binding protein Gq, endogenous in mouse cortex (from UniProt P21279 1-359)

molecular target: EGFP-tagged CB1 receptor (cannabinoid type 1 receptor), expressed from rAAV in mouse cortex (UniProt P47746); test: as above; remark: another data set of the same source

Row | binding | Molecule
4 | binds | B1
5 | binds | B2
6 | binds | B3
